The target in test [1] is Fc tag IL17RA (Sino Biological) (UniProt Q96F46). As to the kind of experiment: SPR; Fc tag IL17RA captured on immobilized anti-Fc surface; IL17A injected at 80 µL/min, contact 180 s, dissociation 1200 s; regeneration 10 mM Glycine pH 1.5; both purified. Background: In SPR one partner is held on a chip, and binding of the other changes the refractive index at the surface.
The next test concerns the target IL17RA-Fc (R&D Systems) (UniProt Q96F46). As to the kind of experiment: AlphaScreen or HTRF; AlphaLISA; 1 nM biotinylated IL17A and 1 nM IL17RA-Fc; protein A acceptor beads, streptavidin donor beads; 100 mM Tris, 0.01% Tween-20, 0.1% BSA, pH 8.0; room temperature; both purified. Background: In Alpha technology, singlet oxygen from a donor bead excites a nearby acceptor bead.

Protein sequences, listed by entry. Tags and fused reporters are not part of them. Lines headed by an entry give the natural chain unless they say otherwise; changes in a name come on top. Chains listed by the source or under a name are the forms on record and can include a tag or linker. Residues count along the entry.
UniProt Q96F46, residues 33-320: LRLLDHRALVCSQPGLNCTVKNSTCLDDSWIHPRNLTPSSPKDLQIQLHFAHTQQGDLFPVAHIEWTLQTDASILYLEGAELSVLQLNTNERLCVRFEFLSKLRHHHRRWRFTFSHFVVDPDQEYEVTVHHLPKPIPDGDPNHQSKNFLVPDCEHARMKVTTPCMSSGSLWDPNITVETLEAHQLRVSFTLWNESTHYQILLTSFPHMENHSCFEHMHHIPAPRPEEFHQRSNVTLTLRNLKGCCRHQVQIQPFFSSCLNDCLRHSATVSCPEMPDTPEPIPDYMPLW
biotinylated IL17A (R&D systems) (Q16552, residues 24-155): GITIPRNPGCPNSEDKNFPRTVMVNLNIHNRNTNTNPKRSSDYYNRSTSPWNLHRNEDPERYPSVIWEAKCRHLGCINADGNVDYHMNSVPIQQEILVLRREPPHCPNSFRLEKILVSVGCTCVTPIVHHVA
IL17A (34–148)C129S (Q16552, form named): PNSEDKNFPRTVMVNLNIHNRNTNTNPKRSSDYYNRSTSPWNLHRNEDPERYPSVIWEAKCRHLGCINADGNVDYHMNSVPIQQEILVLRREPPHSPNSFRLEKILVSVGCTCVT

Results are given in words; binding and its absence hold for the method and conditions named. Some results given as binding are weak or reduced against the parent protein; the word gives no strength.

The source of these data is paper PMC9418147, “Identification and structure-based drug design of cell-active inhibitors of interleukin 17A at a novel C-terminal site” (Scientific Reports, 2022).

For the substance “IL17A (34–148)C129S (from UniProt Q16552 34-148) (ligand)”, the binding result in test [1] is given as “no binding”.

On to “biotinylated IL17A (R&D systems) (from UniProt Q16552 24-155) (ligand)”, for which the binding entry with IL17RA-Fc (R&D Systems) is on record as “binds”.
